The series has as its system Polyvalent immunoglobulins (Tegeline). Nature of the series: SPR. The following applies: 5' spacer of 4 PEG(C18) and terminal biotin; 62-500 nM immunoglobulins; no binding; purified native protein; protein details: Tegeline, LFB; label: 5'-biotin; single-stranded DNA.

For at least one entry, the source does not settle the construct or the ends of the probe. A negative result means that nothing was seen under these conditions.

For “GGGAGATAGCCACGACCTATGCAGCCAGCCGCAGTGTAAGTGAATGCAGACATGGTCTAAGTGTCCAGGCTGTGCGAAAGC [Mapt2 (biotin-PEG)]”, the binding result is “no binding”.
